The results in this text go back to paper PMC7819943, “Rice protein-binding microarrays: a tool to detect cis-acting elements near promoter regions in rice”.

By UniProt entry, the sequences of proteins in these tests, tags left out.
UniProt Q0JBA9, entry or part of it: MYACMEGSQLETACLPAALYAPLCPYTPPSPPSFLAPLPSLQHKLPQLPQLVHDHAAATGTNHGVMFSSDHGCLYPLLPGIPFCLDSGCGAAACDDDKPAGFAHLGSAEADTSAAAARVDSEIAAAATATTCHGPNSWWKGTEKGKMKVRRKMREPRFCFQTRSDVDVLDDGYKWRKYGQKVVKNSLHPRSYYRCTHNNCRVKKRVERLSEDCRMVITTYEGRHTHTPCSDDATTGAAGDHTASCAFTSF

This is one part of the list.

For the assay, the target named is OsWRKY34 (Oryza sativa, UniProt Q0JBA9 1-250). As to the kind of experiment: protein-binding microarray (RPBM); PBS, 2% BSA, 51.3 ng/ul salmon testes DNA, 50 uM zinc acetate, 200 nM TF, 25 C, 1 h; high values mean tight binding. To be noted: protein: recombinant; tags: N-terminal polyhistidine and DsRed monomer fusion (pET32a); label: CyDye5-dUTP incorporated in the synthesized complementary strand; 3' TTTTT single-stranded linker to array surface; dsDNA, one strand shown. A digest of the protocol:
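Transcription factors, each fused N-terminally to a polyhistidine tag and DsRed, were expressed in E. coli BL21-CodonPlus and purified on Ni–NTA. A custom Agilent array was made double-stranded by primer extension with Cy5-dUTP and blocked with 2% BSA. It was incubated with 200 nM protein in PBS, 2% BSA, salmon testes DNA and 50 µM zinc acetate at 25 °C for 1 h, then washed. The binding signal is per-feature fluorescence intensity (arbitrary units) read on an Axon 4000B scanner.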
For the sequence “ATCGCCCTCTTCCTTGTCTCTAGCAGCTCAGCCGCCAGAACGGAGTCACCTAGTGCAG”, the binding signal is 9000 fluorescence intensity (a.u.). Consider “TATATTTTCTTCTTCGTCACGATCGATGGGATTTTTATTTCGGAGTCACCTAGTGCAG”, for which the binding signal is 9040 fluorescence intensity (a.u.). Next, “CGGGGTGCTGGGTTTCCGGGTGAAGGCGTCTTCGTGCGAGCGGAGTCACCTAGTGCAG”: 9500 fluorescence intensity (a.u.); “TATGTCCTCTGCGAATCTATGCAGACAATAAACAAGCTTCCGGAGTCACCTAGTGCAG”: 8400 fluorescence intensity (a.u.); “TAATCTGTACATAACCACTGCTGCTTTGCTAACAGGCGCCCGGAGTCACCTAGTGCAG”: 8380 fluorescence intensity (a.u.). To “TCCTCAATTTGACTTGTACCGTGTAGCCATCGATTTTCTTCGGAGTCACCTAGTGCAG” belongs 11500 fluorescence intensity (a.u.); to “GCCTTTCGATACCTTAATTCTCGATATTTTTTCTTTTCACCGGAGTCACCTAGTGCAG”, 12500 fluorescence intensity (a.u.); to “TTTCCCACGTTTTGTCATTTTTTCAGCTATATATTAATTTCGGAGTCACCTAGTGCAG”, 12000 fluorescence intensity (a.u.). Next, “GGCTTGCCGCGCCGCCTCCTACCTCCCGGATTTCCTCCTTCGGAGTCACCTAGTGCAG”: 8530 fluorescence intensity (a.u.); “ATTCATTAGGGTGTAATTTGTAAATTGTCTTGAGTCTTTACGGAGTCACCTAGTGCAG”: 8280 fluorescence intensity (a.u.). As for “AATTTTGTCGTCCGATCCATATATTTTGCTCATCTTTTCCCGGAGTCACCTAGTGCAG”, the binding signal is 8590 fluorescence intensity (a.u.). Next, “CATTTCAAACCACAAGTATATCTCTACCATCCTATTTTTACGGAGTCACCTAGTGCAG”: 9400 fluorescence intensity (a.u.); “CCTCACCACACGCGCCGTCTCCTCGATCACCACACGCGCACGGAGTCACCTAGTGCAG”: 8430 fluorescence intensity (a.u.); “GCCGTCATAGCATCGATCGCCAGTTCGCCACAGCACAATGCGGAGTCACCTAGTGCAG”: 8050 fluorescence intensity (a.u.). Next, “GCTCTCAATCTCATCCTTTCGTCTATTCCTTGCAGTCTTGCGGAGTCACCTAGTGCAG”: 8400 fluorescence intensity (a.u.); “TTCCTTCGCGATCTCACCCCGCGTGCCCTAGCTAGCTATCCGGAGTCACCTAGTGCAG”: 8390 fluorescence intensity (a.u.); “CATTTTATTGTGAACTTTTTCCTTTTAAACTCGATGTTTACGGAGTCACCTAGTGCAG”: 10700 fluorescence intensity (a.u.). Regarding “CTCTCTCTCTCTCTCTCTCTAGCTTCCACCTCCTGATCCACGGAGTCACCTAGTGCAG”, the binding signal is 11000 fluorescence intensity (a.u.). To “CTCCTACACTAGGTATACGTCCATATATAGCAATAATCACCGGAGTCACCTAGTGCAG” belongs 8200 fluorescence intensity (a.u.). Regarding “CTTGGAGGTGGTTCAGGTGGAGGCGGCGGTCTCGGAGGTGCGGAGTCACCTAGTGCAG”, the binding signal was 9240 fluorescence intensity (a.u.).

Turning to “GTCACTTTTGCAGAGGCCGGGCTGCTGTTCTTCGTATTTACGGAGTCACCTAGTGCAG”, the binding signal is 10800 fluorescence intensity (a.u.). Next, “GTTTAGTAGACCTCCAACTCCTAAATTTAGGGCCATTTTTCGGAGTCACCTAGTGCAG”: 8200 fluorescence intensity (a.u.); “AGCTATCATTTATGGATTTAACCGCGGTTTCTTTGTCTTTCGGAGTCACCTAGTGCAG”: 11100 fluorescence intensity (a.u.). Next, “CACTTCCTTCTCTAGGCTTATTAACAGCTTATTTCTGATCCGGAGTCACCTAGTGCAG”: 9280 fluorescence intensity (a.u.); “GATTAGTTGTGGATATCTGGTTTTCTGGTTTGGATGACAACGGAGTCACCTAGTGCAG”: 8790 fluorescence intensity (a.u.); “GGCGACCCGCTTGTCTCACTCTCTCTCTGCTACAGCTAGCCGGAGTCACCTAGTGCAG”: 9620 fluorescence intensity (a.u.). To “TGCGTGTTGTGTGTGTGGGTGATCTTTGGCGCGCCTCGTCCGGAGTCACCTAGTGCAG” belongs 8120 fluorescence intensity (a.u.); to “CGTCCATTTTAGATCATGCGATGCTAGTTTGACTGCTTATCGGAGTCACCTAGTGCAG”, 8520 fluorescence intensity (a.u.); to “TGTCACATTTTTCGTCGTCTCCATCTTCATCTTCTTGTCGCGGAGTCACCTAGTGCAG”, 11200 fluorescence intensity (a.u.). Turning to “CGTGGCTCCCTTTACATTACAGCGTAATCAAGCGTCATTACGGAGTCACCTAGTGCAG”, the binding signal is 10300 fluorescence intensity (a.u.). To “CAGGTACTGTAGTTGAATTCTTGTGTCAGTGTCACACTATCGGAGTCACCTAGTGCAG” belongs 8900 fluorescence intensity (a.u.); to “CAGTTTTCATCGTTAACGACCACTCGGGCGTGGTATTCGTCGGAGTCACCTAGTGCAG”, 8420 fluorescence intensity (a.u.); to “TCTTCTTTTTTTCACCCAGATCAAGGAGCCCTCAGAAATACGGAGTCACCTAGTGCAG”, 8390 fluorescence intensity (a.u.). On to “CGGGTCTTGACTCTTGACCCTTCACATTTCGGTCAGCTCGCGGAGTCACCTAGTGCAG”, for which the binding signal was 9150 fluorescence intensity (a.u.). To “AGTTTAGGGGAGGGTTTCTCCTGAGGCTCTTATACCGTGTCGGAGTCACCTAGTGCAG” belongs 14100 fluorescence intensity (a.u.). Next, “ACCTTATTCTTGCACAAATCTTCAAGCACTTTCAGTGATGCGGAGTCACCTAGTGCAG”: 8420 fluorescence intensity (a.u.). Turning to “CCACTTCTCGCCATGAAAACAGCGCCACAATTTCCAATTCCGGAGTCACCTAGTGCAG”, the binding signal is 9660 fluorescence intensity (a.u.). Take “GGCGGCAGGGGCTATTTCTGCAATTTTTTTGGTTGATAGACGGAGTCACCTAGTGCAG”: the binding signal is 11600 fluorescence intensity (a.u.).

Consider “ACAGCACATACATATGTAAGGATTTGTTTCCACAACCTCTCGGAGTCACCTAGTGCAG”, for which the binding signal is 9590 fluorescence intensity (a.u.). For “CTCGTGCGCCACCGTCCACCGTCGCCGAGCCGGTGCCATCCGGAGTCACCTAGTGCAG”, the binding signal is 8710 fluorescence intensity (a.u.). In the case of “CTCATGATTTGGTTAGTAGTAGTTGGTTGGTTAGTTTACGCGGAGTCACCTAGTGCAG”, the binding signal was 12000 fluorescence intensity (a.u.). Next, “TTTTTTGTTTTCTCCTTTGCTCGGCTTCTGCTGGTCCTGACGGAGTCACCTAGTGCAG”: 9360 fluorescence intensity (a.u.).
